# Laboratory results taken from PMC4735750.
# Sequences of proteins named here, by UniProt entry; tags and fusion partners are left off.
# UniProt Q14676: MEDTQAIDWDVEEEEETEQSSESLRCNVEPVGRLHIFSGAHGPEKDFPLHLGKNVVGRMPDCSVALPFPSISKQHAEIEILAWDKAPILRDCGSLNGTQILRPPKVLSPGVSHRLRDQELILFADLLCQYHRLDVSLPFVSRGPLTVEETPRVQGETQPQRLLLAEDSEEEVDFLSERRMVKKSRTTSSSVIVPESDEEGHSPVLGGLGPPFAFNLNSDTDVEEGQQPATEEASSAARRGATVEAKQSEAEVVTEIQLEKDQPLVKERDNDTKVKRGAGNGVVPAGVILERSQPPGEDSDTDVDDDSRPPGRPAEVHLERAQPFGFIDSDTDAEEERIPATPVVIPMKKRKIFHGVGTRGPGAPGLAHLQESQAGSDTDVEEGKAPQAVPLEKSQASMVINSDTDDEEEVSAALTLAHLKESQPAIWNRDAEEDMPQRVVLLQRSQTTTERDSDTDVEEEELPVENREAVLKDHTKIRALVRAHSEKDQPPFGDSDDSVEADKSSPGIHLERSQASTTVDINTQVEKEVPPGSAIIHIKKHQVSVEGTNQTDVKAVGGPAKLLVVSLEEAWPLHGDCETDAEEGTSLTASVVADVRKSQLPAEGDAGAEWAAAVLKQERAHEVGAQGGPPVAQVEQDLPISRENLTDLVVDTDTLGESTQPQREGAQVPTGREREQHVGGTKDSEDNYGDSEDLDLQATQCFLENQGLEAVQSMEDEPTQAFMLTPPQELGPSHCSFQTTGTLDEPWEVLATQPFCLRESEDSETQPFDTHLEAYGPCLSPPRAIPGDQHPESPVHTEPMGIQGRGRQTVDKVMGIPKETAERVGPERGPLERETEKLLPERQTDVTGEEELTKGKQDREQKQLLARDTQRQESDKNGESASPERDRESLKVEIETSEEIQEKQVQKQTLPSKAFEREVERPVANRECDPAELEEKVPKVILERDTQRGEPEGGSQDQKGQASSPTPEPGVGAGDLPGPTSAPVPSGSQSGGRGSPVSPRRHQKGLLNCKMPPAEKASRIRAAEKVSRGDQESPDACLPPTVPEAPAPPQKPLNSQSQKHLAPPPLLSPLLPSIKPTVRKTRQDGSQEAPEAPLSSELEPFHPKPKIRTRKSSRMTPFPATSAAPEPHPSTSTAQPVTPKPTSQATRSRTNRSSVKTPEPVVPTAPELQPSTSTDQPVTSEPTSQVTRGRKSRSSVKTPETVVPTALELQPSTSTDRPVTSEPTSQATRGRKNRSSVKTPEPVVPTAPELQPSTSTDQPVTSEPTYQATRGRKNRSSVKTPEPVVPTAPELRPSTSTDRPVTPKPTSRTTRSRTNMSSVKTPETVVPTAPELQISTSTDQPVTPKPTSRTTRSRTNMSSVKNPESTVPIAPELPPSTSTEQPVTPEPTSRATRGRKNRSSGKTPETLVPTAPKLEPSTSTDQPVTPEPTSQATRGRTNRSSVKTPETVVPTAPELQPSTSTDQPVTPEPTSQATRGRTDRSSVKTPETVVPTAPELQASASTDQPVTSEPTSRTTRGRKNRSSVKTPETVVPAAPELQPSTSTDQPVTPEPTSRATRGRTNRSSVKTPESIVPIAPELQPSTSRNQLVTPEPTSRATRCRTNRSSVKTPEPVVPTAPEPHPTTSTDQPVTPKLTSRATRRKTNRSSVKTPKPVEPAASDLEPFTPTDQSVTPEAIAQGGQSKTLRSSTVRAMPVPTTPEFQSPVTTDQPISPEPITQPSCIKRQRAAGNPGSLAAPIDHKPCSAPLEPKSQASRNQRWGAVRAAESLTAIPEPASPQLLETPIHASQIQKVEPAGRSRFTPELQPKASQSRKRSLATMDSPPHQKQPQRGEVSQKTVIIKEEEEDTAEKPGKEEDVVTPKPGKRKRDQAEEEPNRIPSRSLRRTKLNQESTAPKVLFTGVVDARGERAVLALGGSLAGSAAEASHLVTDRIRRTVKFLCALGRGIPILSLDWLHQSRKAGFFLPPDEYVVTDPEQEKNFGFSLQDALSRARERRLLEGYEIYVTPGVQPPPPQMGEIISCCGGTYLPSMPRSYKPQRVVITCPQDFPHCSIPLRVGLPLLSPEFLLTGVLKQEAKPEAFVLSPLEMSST
# UniProt O60934: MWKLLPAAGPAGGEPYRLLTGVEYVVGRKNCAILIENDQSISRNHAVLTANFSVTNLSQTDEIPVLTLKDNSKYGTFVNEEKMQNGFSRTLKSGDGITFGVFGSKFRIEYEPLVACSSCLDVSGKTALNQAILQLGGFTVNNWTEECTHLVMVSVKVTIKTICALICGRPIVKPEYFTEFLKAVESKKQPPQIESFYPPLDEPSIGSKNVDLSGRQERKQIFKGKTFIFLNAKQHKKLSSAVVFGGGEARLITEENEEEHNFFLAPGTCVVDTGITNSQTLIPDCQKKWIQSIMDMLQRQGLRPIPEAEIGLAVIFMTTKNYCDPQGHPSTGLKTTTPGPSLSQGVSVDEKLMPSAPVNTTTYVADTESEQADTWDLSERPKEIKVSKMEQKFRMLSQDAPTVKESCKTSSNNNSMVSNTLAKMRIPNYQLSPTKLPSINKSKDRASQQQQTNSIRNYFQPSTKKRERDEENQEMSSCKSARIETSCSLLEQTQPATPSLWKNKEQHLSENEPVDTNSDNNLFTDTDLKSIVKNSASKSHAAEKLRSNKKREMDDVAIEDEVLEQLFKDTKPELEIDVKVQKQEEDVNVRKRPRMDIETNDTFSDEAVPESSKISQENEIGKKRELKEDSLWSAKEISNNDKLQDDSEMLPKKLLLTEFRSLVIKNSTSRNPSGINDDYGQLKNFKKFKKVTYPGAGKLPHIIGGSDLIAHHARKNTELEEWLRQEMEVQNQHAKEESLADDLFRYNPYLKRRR
# UniProt Q92878: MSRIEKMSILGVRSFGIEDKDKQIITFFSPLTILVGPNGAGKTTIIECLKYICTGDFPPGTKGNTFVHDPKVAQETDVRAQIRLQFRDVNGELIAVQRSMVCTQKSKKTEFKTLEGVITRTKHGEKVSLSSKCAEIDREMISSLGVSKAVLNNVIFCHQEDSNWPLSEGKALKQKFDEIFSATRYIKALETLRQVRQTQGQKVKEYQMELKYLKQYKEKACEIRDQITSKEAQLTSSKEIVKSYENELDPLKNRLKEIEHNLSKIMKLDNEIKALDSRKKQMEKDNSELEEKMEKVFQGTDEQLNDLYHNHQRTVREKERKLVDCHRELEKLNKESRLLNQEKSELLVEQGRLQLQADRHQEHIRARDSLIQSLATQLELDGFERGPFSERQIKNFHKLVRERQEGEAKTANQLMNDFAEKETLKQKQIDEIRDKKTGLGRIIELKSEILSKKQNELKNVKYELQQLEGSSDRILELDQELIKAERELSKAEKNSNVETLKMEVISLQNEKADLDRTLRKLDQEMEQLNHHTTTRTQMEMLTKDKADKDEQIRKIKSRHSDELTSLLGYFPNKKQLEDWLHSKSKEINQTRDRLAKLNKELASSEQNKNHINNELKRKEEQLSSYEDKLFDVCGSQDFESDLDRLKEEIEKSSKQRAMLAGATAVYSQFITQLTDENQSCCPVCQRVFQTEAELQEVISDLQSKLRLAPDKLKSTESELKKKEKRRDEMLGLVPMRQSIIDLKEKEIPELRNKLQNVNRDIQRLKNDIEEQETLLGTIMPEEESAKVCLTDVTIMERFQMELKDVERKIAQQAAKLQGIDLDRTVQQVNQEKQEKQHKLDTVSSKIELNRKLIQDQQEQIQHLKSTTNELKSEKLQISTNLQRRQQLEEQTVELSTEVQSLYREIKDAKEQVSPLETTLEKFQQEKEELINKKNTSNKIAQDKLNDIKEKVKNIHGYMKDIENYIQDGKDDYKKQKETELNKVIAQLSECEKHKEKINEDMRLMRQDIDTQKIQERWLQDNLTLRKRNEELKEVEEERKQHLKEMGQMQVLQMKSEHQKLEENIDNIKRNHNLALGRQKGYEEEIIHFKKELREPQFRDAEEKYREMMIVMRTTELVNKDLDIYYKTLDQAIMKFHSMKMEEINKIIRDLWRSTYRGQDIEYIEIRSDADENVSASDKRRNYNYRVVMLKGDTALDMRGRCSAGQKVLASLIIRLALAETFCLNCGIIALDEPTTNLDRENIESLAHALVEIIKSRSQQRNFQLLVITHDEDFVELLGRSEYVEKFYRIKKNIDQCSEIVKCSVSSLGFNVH
# No constants are given. Whether binding was seen depends on the method and setting. In cells and extracts the contact can be indirect. Here binding means that the protein was enriched with, or labelled near, the bait; the list need not be complete. Where a sequence is shown, tags or fusion partners need not be part of it.
# Target: T1, FLAG-tagged Treacle (mouse Tcof1, full length) (mouse) (UniProt O08784)
# T1 sequence: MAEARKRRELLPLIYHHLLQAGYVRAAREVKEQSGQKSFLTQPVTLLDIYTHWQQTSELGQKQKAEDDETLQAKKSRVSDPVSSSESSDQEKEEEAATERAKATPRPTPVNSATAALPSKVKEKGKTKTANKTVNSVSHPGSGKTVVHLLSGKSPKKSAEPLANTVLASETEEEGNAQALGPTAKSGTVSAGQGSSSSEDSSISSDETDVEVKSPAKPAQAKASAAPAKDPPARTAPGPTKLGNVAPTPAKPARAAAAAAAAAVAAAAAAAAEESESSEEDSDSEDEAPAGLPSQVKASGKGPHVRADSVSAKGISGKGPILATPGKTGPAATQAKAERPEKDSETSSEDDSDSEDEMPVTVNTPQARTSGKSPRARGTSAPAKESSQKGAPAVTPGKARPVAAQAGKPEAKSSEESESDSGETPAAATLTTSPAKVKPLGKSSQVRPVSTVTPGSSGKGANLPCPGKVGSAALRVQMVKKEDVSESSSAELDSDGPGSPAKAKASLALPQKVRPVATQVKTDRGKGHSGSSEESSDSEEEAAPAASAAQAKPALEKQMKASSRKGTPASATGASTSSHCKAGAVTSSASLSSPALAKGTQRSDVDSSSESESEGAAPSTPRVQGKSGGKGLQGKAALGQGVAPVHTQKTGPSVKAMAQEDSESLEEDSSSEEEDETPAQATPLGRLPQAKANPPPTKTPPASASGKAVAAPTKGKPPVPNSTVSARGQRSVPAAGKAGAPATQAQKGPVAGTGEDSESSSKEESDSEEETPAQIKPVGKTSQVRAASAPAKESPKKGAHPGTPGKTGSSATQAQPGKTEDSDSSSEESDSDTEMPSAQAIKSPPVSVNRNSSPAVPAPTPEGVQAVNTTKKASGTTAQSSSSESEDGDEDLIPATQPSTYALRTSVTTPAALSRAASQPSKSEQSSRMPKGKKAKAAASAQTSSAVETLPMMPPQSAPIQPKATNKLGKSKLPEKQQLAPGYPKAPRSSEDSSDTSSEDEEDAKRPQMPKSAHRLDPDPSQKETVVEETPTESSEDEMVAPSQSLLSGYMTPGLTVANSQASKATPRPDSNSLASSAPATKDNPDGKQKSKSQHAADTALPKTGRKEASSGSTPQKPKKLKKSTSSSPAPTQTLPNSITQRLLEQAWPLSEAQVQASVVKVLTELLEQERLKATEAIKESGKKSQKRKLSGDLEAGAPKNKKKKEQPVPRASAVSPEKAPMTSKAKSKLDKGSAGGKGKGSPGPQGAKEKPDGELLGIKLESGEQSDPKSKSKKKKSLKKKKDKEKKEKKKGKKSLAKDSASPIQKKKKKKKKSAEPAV
# Test: affinity purification with mass spectrometry; anti-FLAG agarose from lysates of Tcof1/293-FRT and 293-FRT cells (50 mM Tris-HCl pH 7.5, 150 mM NaCl, 1% NP-40, 5 mM EDTA), 4 °C overnight, eluted by FLAG peptide, MudPIT
row,binding,Substance
1,binds,endogenous MDC1 (from UniProt Q14676 1-2089)
2,binds,endogenous Nbs1 (from UniProt O60934 1-754)
3,binds,endogenous Rad50 (from UniProt Q92878 1-1312)
